System: Sprague-Dawley rats
Assay: Prevention of diuretic resistance to twice daily furosemide by nalfurafine, 5-hour urine (FIG. 15)
Type: in vivo, rat
Protocol: Male Sprague-Dawley rats were placed in individual metabolic cages in a room with 12-hour automatic light on/off control and allowed tap water and rodent chow ad libitum. Over the next two (2) days (control period), rats were administered vehicle (5% NaOH; 1 M PBS, IP) in the morning (9:00 am) and afternoon (2:00 pm) of each day, with urine collected for 5-hours starting immediately after the first injection. […] This was repeated for 4 consecutive days (experimental period).

NS(=O)(=O)c1cc(C(=O)O)c(NCc2ccco2)cc1Cl [furosemide]
Excretion of sodium and potassium, furosemide alone vs combination: excreted significantly more sodium and potassium than the combination group on day 1

— patent publication US20240180895A1, “USE OF KAPPA OPIOID RECEPTOR AGONISTS TO TREAT CARDIOVASCULAR DISEASE” (Board of Supervisors of Louisiana State University and …, priority 2021, published 2024)
